# Assay results reported in the supplement of paper PMC12764529.
# ± gives the half width of the 95% confidence interval. For many entries, trypsin and chymotrypsin gave values far apart.
# What was measured:
# [1] = folding stability dG unfold from trypsin proteolysis; higher = more stable
# Procedure: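 Folding stability of de novo designed mini-proteins (<80 aa, no Cys; designed by TrROS, TrMRF, ProteinMPNN and the joint model) was measured by cDNA display proteolysis with trypsin and chymotrypsin. Each protease was used at 11 concentrations in a threefold dilution series plus a no-protease condition. K50 was inferred by Bayesian fitting of sequencing counts, and dG unfold was derived against a sequence-predicted unfolded-state K50 (Tsuboyama et al. method). Sequences shown include variable-length N-terminal GS-type padding (SAGGSAGG...) inside a display construct carrying a PA tag. Rows were kept only if the AF2 dimer inter-PAE was >15, to exclude likely homo-oligomers.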
# [2] = folding stability dG unfold (combined trypsin and chymotrypsin); higher = more stable
# Outline: (§1)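 Only designs with AlphaFold2 dimer inter-PAE above 15 were retained; each was a mini-protein under 80 residues with no cysteine, in a PA-tagged cDNA display construct. After digestion with trypsin and chymotrypsin and sequencing, K50 was inferred by Bayesian fitting of counts, and unfolding free energy was derived per protease or combined against a sequence-predicted unfolded-state K50 and a shared folded-state K50.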
# [3] = folding stability dG unfold from chymotrypsin proteolysis; higher = more stable
# Outline: as §1
sequence,measurement,setting,value
SAMKIKEIKIEKEGNTITIEVKIEKDGKEYLVKVRIEVKKDKNGKLIKKIEIEIYDKDGKKVLKLEIELSAG [r14_465_TrROS_Hall],folding stability dG unfold,[1],3.44 ± 0.41 kcal/mol
same,folding stability dG unfold,[2],> 6 kcal/mol
SAGGSSISSSSPISITVEKVEVETTTTTFPGGEPPVPIGKPKEITVTITSRPLPNGTVLSSTTTVGSAGGSA [r2_218_JUSTAS],folding stability dG unfold,[1],1.19 ± 0.025 kcal/mol
same,folding stability dG unfold,[2],0.357 ± 0.056 kcal/mol
SAGGSAGGSSVTLVLPKAKTEEEARKAIEEEIRKLLPPGAKVEIRIEKNEDGEVRVVVRIEKPSAGGSAGGS [r20_122_TrROS_Hall],folding stability dG unfold,[1],2.1 ± 0.062 kcal/mol
same,folding stability dG unfold,[2],1.35 ± 0.11 kcal/mol
SAGGSAGGSAPDDDQPPEEVEPKPVTIRIPFPLDDLPAKEAKKYAEEFAKRLPDYKVEVDAWSAGGSAGGSA [r18_499_TrROS],folding stability dG unfold,[1],-0.476 ± 0.57 kcal/mol
same,folding stability dG unfold,[3],3.46 ± 0.21 kcal/mol
SAGGSSVTVTPTPDGMVVTVETDGETVTVPLSPEVAAEIAANPDLAAVLAALFPPGRPVASVSVEPASAGGS [r16_567_JUSTAS],folding stability dG unfold,[1],1.54 ± 0.06 kcal/mol
same,folding stability dG unfold,[2],0.582 ± 0.053 kcal/mol
SAGGSAGGSSMPVKVTRTPVPSSAPPSTEFLETVTYPDGTVTTYRFRRDDGSVTSVRVSTSPASAGGSAGGS [r12_1049_JUSTAS],folding stability dG unfold,[1],-0.535 ± 0.71 kcal/mol
same,folding stability dG unfold,[2],< -1 kcal/mol
SAGGSAGGDLLKEALEQMPPGEEREINLEFEYYNPNGPPRKQNYTIRIKVDPKNNKMKVDIEPPSAGGSAGG [r6_712_TrROS],folding stability dG unfold,[1],1.45 ± 0.13 kcal/mol
same,folding stability dG unfold,[2],0.552 ± 0.54 kcal/mol
SPLGPGGVRVVLGEVRFERHPDGTVRVEAEFTIEVARPDGPGAVIRVRLEATVPPGGGLRVRVKEVEIRPSA [r9_838_TrMRF],folding stability dG unfold,[1],3.27 ± 0.12 kcal/mol
same,folding stability dG unfold,[2],4.71 ± 0.15 kcal/mol
SAGGSAGGSAMKLTKEYVFTKTITLKNGKTKTESEVLTEEVPPIPLEELIKRLGLPPEELISAGGSAGGSAG [r3_338_JUSTAS],folding stability dG unfold,[3],-0.126 ± 0.44 kcal/mol
same,folding stability dG unfold,[2],-0.186 ± 0.32 kcal/mol
SAGGSAGGSAGGGSMTVTEEELPGGERRVTTRDPATGTTTTTLLKPGGDVVETLTDPAASAGGSAGGSAGGS [r10_1044_JUSTAS],folding stability dG unfold,[3],1.43 ± 0.017 kcal/mol
same,folding stability dG unfold,[2],0.999 ± 0.066 kcal/mol
SAGGSAGGSAGGEIKGKKFKIVKIVEVRYDKETKEFYVRIYIEDTNEIITVRLEDLPEELSAGGSAGGSAGG [r7_304_TrROS_Hall],folding stability dG unfold,[3],2.29 ± 0.025 kcal/mol
same,folding stability dG unfold,[2],2.25 ± 0.18 kcal/mol
SAGGSAGGSAGDKKRKERTIEMRNPDNGQEWEIEIPEGLPPDEFKPGQPISMNEIRDAIGSAGGSAGGSAGG [r17_412_TrROS],folding stability dG unfold,[3],1.03 ± 0.13 kcal/mol
same,folding stability dG unfold,[2],0.389 ± 0.24 kcal/mol
SAGGSAGGSAGSSTVTYPNSTVTTELGGPALTTTTTDPNTTSTTVTVTPLPGVAPTPAAASAGGSAGGSAGG [r11_788_JUSTAS],folding stability dG unfold,[3],1.36 ± 0.022 kcal/mol
same,folding stability dG unfold,[2],1.02 ± 0.056 kcal/mol
SAGSSLTPEETASETPSFTTLPGPPGLTVETRTTTLPTPPYPVTTETTLHDPRTGTSTTTTTTTLDPGGSAG [r5_471_JUSTAS],folding stability dG unfold,[3],1.15 ± 0.042 kcal/mol
same,folding stability dG unfold,[2],0.534 ± 0.089 kcal/mol
SAGGSAGGSAITSNERLGDEVVVTTKPTNKSKTSTVKPSEMPPNFPIPPDLTTSSAPASPALRSAGGSAGGS [r12_1005_JUSTAS],folding stability dG unfold,[3],1.46 ± 0.031 kcal/mol
same,folding stability dG unfold,[2],0.853 ± 0.1 kcal/mol
SAGGSAGGSAGKVIKLEELKKKFPNMSPEELAAFFKKLGYKVEVVKVGDVPYVFLSPGEKSAGGSAGGSAGG [r11_707_TrMRF],folding stability dG unfold,[3],3.676 ± 0.02 kcal/mol
same,folding stability dG unfold,[2],3.33 ± 0.049 kcal/mol
SAGGSAGGSAGGKSIPIEELAARFAPEGEANAVNTETGEVVVITLPPETGEAKPRVFPASAGGSAGGSAGGS [r10_777_TrMRF],folding stability dG unfold,[3],1.05 ± 0.054 kcal/mol
same,folding stability dG unfold,[2],0.718 ± 0.1 kcal/mol
SMTVIEIKVKLSEEEVKELVEKLKEELPEDVEVVDIEVEEKEGYVVIKIVIKDPELSPEQLEKLRKLLEESA [r9_195_TrROS_Hall],folding stability dG unfold,[3],3.28 ± 0.34 kcal/mol
same,folding stability dG unfold,[2],> 6 kcal/mol
SAGEELLREIAKKLNLPEGAEIVKVEIKVEEKDGRLRITITITVRNKETGELKTIEIEIEIELPEEEEESAG [r5_94_TrROS_Hall],folding stability dG unfold,[1],3.9 ± 0.27 kcal/mol
same,folding stability dG unfold,[2],4.01 ± 0.43 kcal/mol
SAGGSAGRVVAVPPAGLRVEFPVPEGMTPEEVAELALALADAAVAATGNPDVAVFYDPETGEVVVASAGGSA [r15_33_TrMRF],folding stability dG unfold,[3],1.45 ± 0.021 kcal/mol
same,folding stability dG unfold,[2],0.869 ± 0.053 kcal/mol
SAGKKITIEIEVKVKTLEEALKKAKELIEKILKELFPGKKLKVKIVKIEVEKEENGELIVKIKIEIEEESAG [r5_320_TrROS_Hall],folding stability dG unfold,[3],3.36 ± 0.22 kcal/mol
same,folding stability dG unfold,[2],> 6 kcal/mol

# A section taken from the entries so far, as a working copy:
sequence,measurement,setting,value
SAGGSAGGSAGGKSIPIEELAARFAPEGEANAVNTETGEVVVITLPPETGEAKPRVFPASAGGSAGGSAGGS [r10_777_TrMRF],folding stability dG unfold,[3],1.05 ± 0.054 kcal/mol
same,folding stability dG unfold,[2],0.718 ± 0.1 kcal/mol
